Measurements published in patent US10563263B2, “Genetic polymorphisms associated with statin response and cardiovascular diseases, methods of detection and uses thereof” (CELERA CORPORATION, priority 2010, dated 2020).
Further values from the same series stand in other lists.

Tested on: CVD (CHD or stroke)
Assay: CARE: SNP by pravastatin treatment interaction, logistic regression (synergy index), CVD endpoint
Type: in vivo, human
Description: CARE was a secondary prevention trial and WOSCOPS was a primary prevention trial.
The CHD endpoint was defined in the analyses herein of CARE as a composite endpoint of fatal CHD, definite non-fatal MI, or revascularization, and was defined in the analyses herein of WOSCOPS as a composite endpoint of death from CHD, nonfatal MI, or revascularization. In both the CARE and WOSCOPS analyses herein, the CVD endpoint was defined as a composite endpoint of CHD or stroke. […] Revascularization, which can include percutaneous transluminal coronary angioplasty (PTCA), stent placement, and coronary artery bypass graft (CABG), are medical interventions that indicate the presence of CHD.
Cohort and case-only study designs were used to identify SNPs associated with response to statin treatment.
For each SNP, a logistic regression model having treatment status as the dependent variable and SNP as the independent predictor variable was performed, with terms for age, sex and race included in the model as covariates. The anti-log of the regression coefficient corresponding to the SNP is an estimate of the synergy index (SI) (Davis et al., “Imputing gene-treatment interactions when the genotype distribution is unknown using case-only and putative placebo analyses-a new method for the Genetics of Hypertension Associated Treatment (GenHAT) study”, Statistics in Medicine 23: (2004), pages 2413-2427). The SI is a ratio of odds ratios: for example in the CARE and WOSCOPS studies, the SI represents the factor by which the odds-ratio of statin treatment, compared with placebo, among major homozygous individuals is multiplied by in order to obtain the odds-ratio of treatment vs. placebo among heterozygous individuals; and multiplied by a second time to obtain the odds-ratio of treatment vs. placebo in minor homozygous individuals. […] In a randomized clinical trial, genotype and treatment are independent by design.

CC[C@H](C)C(=O)O[C@H]1C[C@H](O)C=C2C=C[C@H](C)[C@H](CC[C@@H](O)C[C@@H](O)CC(=O)O)[C@H]21 [Pravastatin, pravastatin]
OR (SNP rs6495554, allele (A1) C, model REC, Imputed): 3.433
OR (SNP rs6495555, allele (A1) C, model REC, Imputed): 3.433
OR (SNP rs6544728, allele (A1) T, model DOM, Imputed): 1.526
OR (SNP rs6550705, allele (A1) C, model ADD, Imputed): 1.366
OR (SNP rs6593441, allele (A1) A, model DOM, Imputed): 1.577
OR (SNP rs6719700, allele (A1) A, model ADD, Imputed): 1.427
OR (SNP rs6719700, allele (A1) A, model DOM, Imputed): 1.536
OR (SNP rs6722640, allele (A1) T, model DOM, Imputed): 0.682
OR (SNP rs6743092, allele (A1) T, model ADD, Imputed): 1.36
OR (SNP rs6743092, allele (A1) T, model REC, Imputed): 1.57
OR (SNP rs6744759, allele (A1) G, model REC, Imputed): 1.692
OR (SNP rs6746170, allele (A1) A, model DOM, Imputed): 1.528
OR (SNP rs6759922, allele (A1) A, model DOM, Imputed): 0.6185
OR (SNP rs6791296, allele (A1) T, model ADD, Imputed): 0.6225
OR (SNP rs6792662, allele (A1) G, model DOM, Imputed): 1.844
OR (SNP rs6805139, allele (A1) G, model DOM, Imputed): 1.812
OR (SNP rs6806043, allele (A1) C, model ADD, Imputed): 1.366
OR (SNP rs6867153, allele (A1) A, model REC, Imputed): 0.528
OR (SNP rs6871041, allele (A1) G, model DOM, Imputed): 0.6
OR (SNP rs6888012, allele (A1) A, model REC, Imputed): 0.528
OR (SNP rs6908481, allele (A1) C, model REC, Imputed): 1.96
OR (SNP rs7032231, allele (A1) A, model ADD, Imputed): 1.212
OR (SNP rs7067638, allele (A1) T, model DOM, Imputed): 1.6
OR (SNP rs7077799, allele (A1) A, model DOM, Imputed): 1.625
OR (SNP rs7082163, allele (A1) A, model ADD, Imputed): 1.58
OR (SNP rs7082163, allele (A1) A, model DOM, Imputed): 1.684
OR (SNP rs7089661 allele C, model DOM, Imputed): 1.62
OR (SNP rs7101319 allele C, model ADD, Imputed): 1.567
OR (SNP rs7101319 allele C, model DOM, Imputed): 1.667
OR (SNP rs7134262 allele T, model REC, Imputed): 2.449
OR (SNP rs7138300 allele C, model ADD, Imputed): 0.7218
OR (SNP rs7138300 allele C, model DOM, Imputed): 0.6464
OR (SNP rs7163931 allele G, model REC, Imputed): 3.433
OR (SNP rs7171486 allele G, model DOM, Genotyped): 0.7681
OR (SNP rs7172611 allele G, model REC, Imputed): 3.433
OR (SNP rs7172689 allele T, model REC, Imputed): 3.433
OR (SNP rs7180245 allele A, model REC, Imputed): 3.433
OR (SNP rs7220603 allele A, model ADD, Genotyped): 0.7182
OR (SNP rs7282518 allele T, model ADD, Imputed): 1.688
OR (SNP rs7283476 allele T, model ADD, Imputed): 0.3701
OR (SNP rs7283476 allele T, model DOM, Imputed): 0.3345
OR (SNP rs7298255 allele A, model ADD, Imputed): 0.7363
OR (SNP rs7298255 allele A, model DOM, Imputed): 0.6348
OR (SNP rs7305832 allele C, model REC, Imputed): 2.46
OR (SNP rs7392620 allele C, model ADD, Imputed): 0.7778
OR (SNP rs7446891 allele G, model DOM, Imputed): 0.6617
OR (SNP rs7448641 allele C, model ADD, Imputed): 0.2198
OR (SNP rs7448641 allele C, model DOM, Imputed): 0.2258
OR (SNP rs7499402 allele A, model ADD, Genotyped): 1.746
OR (SNP rs7529851 allele A, model ADD, Imputed): 0.7957
OR (SNP rs7573951 allele G, model ADD, Imputed): 0.7174
OR (SNP rs7599198 allele T, model DOM, Imputed): 0.6201
OR (SNP rs7600050 allele C, model ADD, Imputed): 1.294
OR (SNP rs7607712 allele T, model ADD, Imputed): 1.401
OR (SNP rs7607712 allele T, model DOM, Imputed): 1.477
OR (SNP rs7621663 allele G, model ADD, Imputed): 1.413
OR (SNP rs7621663 allele G, model REC, Imputed): 2.257
OR (SNP rs7626584 allele G, model ADD, Imputed): 0.4778
OR (SNP rs7684899 allele C, model ADD, Imputed): 0.7138
OR (SNP rs7684899 allele C, model DOM, Imputed): 0.6634
OR (SNP rs7701604 allele G, model ADD, Imputed): 0.2198
OR (SNP rs7701604 allele G, model DOM, Imputed): 0.2258
OR (SNP rs7703676 allele C, model ADD, Imputed): 0.2198
OR (SNP rs7703676 allele C, model DOM, Imputed): 0.2258
OR (SNP rs7708491 allele C, model REC, Imputed): 0.5462
OR (SNP rs7711358 allele A, model DOM, Imputed): 0.6489
OR (SNP rs7719448 allele G, model REC, Imputed): 0.525
OR (SNP rs7724761 allele T, model REC, Imputed): 0.528
OR (SNP rs7742476 allele T, model DOM, Imputed): 1.752
OR (SNP rs7762993 allele A, model ADD, Imputed): 1.568
OR (SNP rs7762993 allele A, model DOM, Imputed): 1.808
OR (SNP rs7767265 allele G, model ADD, Imputed): 1.626
OR (SNP rs7767265 allele G, model DOM, Imputed): 1.904
OR (SNP rs7768128 allele G, model REC, Imputed): 0.3796
OR (SNP rs7771264 allele T, model DOM, Imputed): 0.6735
OR (SNP rs7773151 allele C, model DOM, Genotyped): 0.6804
OR (SNP rs7773210 allele A, model DOM, Genotyped): 0.6745
OR (SNP rs7808536 allele G, model DOM, Imputed): 1.395
OR (SNP rs7843510 allele G, model DOM, Genotyped): 1.623
OR (SNP rs7894867 allele T, model DOM, Imputed): 1.6
OR (SNP rs36071725, allele (A1) C, model ADD, Genotyped): 1.524
OR (SNP rs41395945, allele (A1) G, model ADD, Imputed): 1.706
OR (SNP rs41395945, allele (A1) G, model DOM, Imputed): 1.77
OR (rs198461 allele C, DOM model, Imputed): 0.625
OR (rs208757 allele G, ADD model, Imputed): 1.552
OR (rs208757 allele G, DOM model, Imputed): 1.649
OR (rs264126 allele C, DOM model, Imputed): 0.553
OR (rs264129 allele T, DOM model, Imputed): 0.561
OR (rs483159 allele A1=T, model DOM, Imputed, pravastatin vs placebo): 1.425
OR (rs489441 allele A1=G, model ADD, Imputed, pravastatin vs placebo): 1.446
OR (rs489441 allele A1=G, model DOM, Imputed, pravastatin vs placebo): 1.584
OR (rs1116596 allele T, DOM model, Imputed): 0.6531
OR (rs1149349 allele T, DOM model, Imputed): 1.696
OR (rs1149350 allele A, ADD model, Imputed): 1.592
OR (rs1149350 allele A, DOM model, Imputed): 1.701
OR (rs1782328 allele A, ADD model, Imputed): 0.613
OR (rs1796337 allele T, DOM model, Imputed): 0.597
OR (rs1798083 allele C, DOM model, Imputed): 0.601
OR (rs1798085 allele T, DOM model, Imputed): 0.578
OR (rs1798086 allele T, DOM model, Imputed): 0.553
OR (rs1798089 allele C, REC model, Imputed): 2.101
OR (rs1798090 allele C, REC model, Imputed): 2.054
OR (rs1832222 allele G, DOM model, Imputed): 1.786
OR (rs1838104 allele A, ADD model, Imputed): 0.727
